Experimental data as given in doi:10.1101/472241.
These are yes or no findings as the source states them, for the method shown. In cells and extracts the contact can be indirect. Some results given as binding are weak or reduced against the parent protein; the word gives no strength.

Sequences of proteins named here, by UniProt entry; tags and fusion partners are left off. A change or cut given only in a name is not applied to a line headed by its entry.
UniProt O55057: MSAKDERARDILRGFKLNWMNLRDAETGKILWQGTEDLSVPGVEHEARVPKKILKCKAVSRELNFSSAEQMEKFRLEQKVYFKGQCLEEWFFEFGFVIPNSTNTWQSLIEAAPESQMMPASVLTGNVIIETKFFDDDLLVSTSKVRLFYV
UniProt Q9D0J4: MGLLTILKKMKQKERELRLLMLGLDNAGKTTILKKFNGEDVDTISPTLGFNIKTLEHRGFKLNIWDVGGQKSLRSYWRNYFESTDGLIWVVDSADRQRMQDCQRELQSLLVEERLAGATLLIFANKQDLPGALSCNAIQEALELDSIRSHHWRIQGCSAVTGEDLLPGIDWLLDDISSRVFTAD

Target: PDEδ (delta subunit of phosphodiesterase-6), endogenous (mouse (endogenous in TSC2+/+ MEFs)) (UniProt O55057)
Test: proximity ligation

ADP-ribosylation factor like 2 (Arl2), endogenous (from UniProt Q9D0J4 1-184)
binding: binds
